Experimental data from US10329334B2 (SANOFI, priority 2015, dated 2019).
For at least one compound, name, drawing or mass did not settle the structure. Starred links: 1 amine or outer side, 2 acyl side, 3 side chain; linkers in the order of their positions; H or OH if unused. Non-standard residues stand in square brackets, D forms with d. Residues, ends and D or L forms follow the SMILES beside them. *: point of attachment. X1 = O=C([C@@H]1CCNc2c(N[*:1])cc3cc(O)c(O)cc3[n+]21)[*:2]; dOrn(N5-OH,N5-CHO) = N[C@H](CCCN(O)C=O)C(=O)O; d(aThr) = C[C@@H](O)[C@@H](N)C(=O)O; Suc = O=C(CCC(=O)[*:2])[*:1]; X2 = O=C1[C@@H](N*)CCCN1[O-]; Orn = NCCC[C@H](N)C(=O)O

Amino acid sequences for entries named in this document (tags omitted). Residues count along the entry.
UniProt P80188, 21-198 Q48H/C107S: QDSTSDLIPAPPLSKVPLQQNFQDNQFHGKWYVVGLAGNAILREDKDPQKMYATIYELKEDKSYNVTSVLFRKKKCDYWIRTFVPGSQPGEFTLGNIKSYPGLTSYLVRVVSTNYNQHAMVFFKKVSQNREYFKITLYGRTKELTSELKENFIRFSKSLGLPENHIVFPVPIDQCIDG

Key:
Type in all cases: binding
Details in all cases: high concentrations (≥1 μM)
[1] = biological target: T1, human lipocalin 2 (hNGAL) mutein SEQ ID NO: 36 (Homo sapiens, UniProt P80188, A60T/C107S/D97H/K145I/K154W/K93R/L123T/L56V/L90R/N85D/Q69G/R101D/R92I/S147R/S88D/T74A/W99Y/Y126Q/Y152I/Y72N); assay: SPR (Biacore T200), mutein SEQ ID NO: 36
T1 construct: made in house; host or cells: E. coli

[2] = biological target: T2, human lipocalin 2 (hNGAL) mutein SEQ ID NO: 16 (Homo sapiens, UniProt P80188, A60T/C107S/D97I/I100T/I61A/K145Y/K154N/K93E/K95E/L123Q/L56W/L90Q/N116G/N85D/Q69P/R101I/R92P/S147T/S88D/T156A/T74V/W99S/Y120S/Y126H/Y152G/Y72P); assay: SPR (Biacore T200), mutein SEQ ID NO: 16
T2 construct: made in house; host or cells: E. coli

[3] = biological target: T3, human lipocalin 2 (hNGAL) mutein SEQ ID NO: 62 (Homo sapiens, UniProt P80188, A60Q/C107S/D65G/D97L/I61W/K145F/K154F/K66R/K93I/L123G/L56H/L90D/N85D/Q69R/R101T/R92A/S147I/S88D/W99R/Y120H/Y126G/Y152A/Y72W); assay: SPR (Biacore T200, CM5 chip), mutein SEQ ID NO: 62
T3 construct: made in house; host or cells: E. coli

[4] = biological target: T4, human lipocalin 2 (hNGAL) mutein SEQ ID NO: 53 (Homo sapiens, UniProt P80188, A60L/C107S/D97K/I61A/K154W/K93H/L123Q/L56E/L62R/L90R/N116L/N85D/Q69M/R101V/S125P/S147V/S88E/W99D/Y120D/Y126E/Y72M); assay: SPR (Biacore T200), mutein SEQ ID NO: 53
T4 construct: made in house; host or cells: E. coli
Protocol: (§1) In a Surface Plasmon Resonance (SPR) based assay a Biacore T200 instrument (GE Healthcare) was used to measure the binding affinity of muteins to pyoverdine I succinyl, -succinamid, -α-ketoglutaryl with complexed iron ion or to pyoverdine II succinyl, -succinamid, -α-ketoglutaryl with complexed iron ion or to pyoverdine III succinyl, -succinamid, -α-ketoglutaryl with complexed iron ion. Muteins selected for binding to pyoverdines and negative control (SEQ ID NO: 64) were biotinylated for 2 h at room temperature applying an appropriate excess of EZ-Link NHS-PEG4-Biotin (Thermo, […]) followed by separation of non-reacted Biotin using a Zeba Spin Desalting Plate (Thermo, […]) according to the manufactures instructions.
(§2) In the SPR affinity assay, biotinylated muteins and negative control were captured on a sensor chip CAP using the Biotin CAPture Kit (GE Healthcare): Sensor Chip CAP is pre-immobilized with an ssDNA oligo. […]
(§3) Applying a flow rate of 30 μl/min, a single cycle or multi cycle kinetics approach was used with a sample contact time of 120-180 s and a dissociation time of 900-2400 s. […] After ligand immobilization, for analysis using single cycle kinetics all 4-5 concentrations of Pvd were applied consecutively in ascending order before the dissociation was monitored. […] Data were evaluated with Biacore T200 Evaluation software (V 1.0). […]

[5] = biological target: negative control lipocalin SEQ ID NO: 64 (Homo sapiens, UniProt P80188, C107S/Q48H); assay: SPR (Biacore T200), negative control SEQ ID NO: 64
Protocol: as §1, §2, §3

SMILES: NC(=O)CC[C@H](NC(=O)[C@H](CCCN([O-])C=O)NC(=O)[C@@H]1CCN=C([C@@H](CO)NC(=O)[C@@H]2CCNc3c(NC(=O)CCC(=O)O)cc4cc([O-])c([O-])cc4[n+]32)N1)C(=O)N[C@H](CCC(N)=O)C(=O)N[C@H](CCCN([O-])C=O)C(=O)NCC(=O)O.[Fe+3] [Pvd III s (+Fe)]
- binding (specificity) [1]: −
- binding (specificity) [2]: −
- binding (specificity) [3]: −
- binding (specificity) [4]: +
- binding (specificity) [5]: −

SMILES: C[C@@H](O)[C@@H](NC(=O)CNC(=O)[C@H](CCCN)NC(=O)[C@@H](CCCN([O-])C=O)NC(=O)[C@@H](CO)NC(=O)[C@@H]1CCNc2c(NC(=O)CCC(=O)O)cc3cc([O-])c([O-])cc3[n+]21)C(=O)N[C@@H](CO)C(=O)N[C@H]1CCCN([O-])C1=O.[Fe+3] [Pvd II s (+Fe)] (Suc-[X1][dS][dOrn(N5-OH,N5-CHO)][Orn]G[d(aThr)]S-X2)
- binding (specificity) [1]: +
- binding (specificity) [2]: −
- binding (specificity) [3]: −
- binding (specificity) [4]: −
- binding (specificity) [5]: −
